No constants are given. Whether binding was seen depends on the method and setting. Binding seen in cells or lysates may run through a third protein. Some entries that bind do so weakly or less than the wild type.
Target: proteasome ATPase Rpt3 (endogenous) (human (endogenous in HCT116)) (UniProt P43686)
Assay: co-IP; Rpt3 antibody immunoprecipitation from lysates of parental HCT116 cells (mock, scrambled or E6AP siRNA, empty vector or myc-hRpn10 constructs); 1% Triton X-100 buffer, overnight 4 °C; immunoblot

- binding: binds
Substance: endogenous hRpn10 (full-length protein in WT HCT116 cells) (from UniProt P55036 1-377)
